Results are given in words; binding and its absence hold for the method and conditions named. In cells and extracts the contact can be indirect. A yes stands for co-enrichment or nearness to the bait. Other partners may have been found. For part of these data: A no says only that the protein was not detected with the bait.
Legend:
Flag-tagged EB1 (human) [1] = molecular target: Flag-tagged EB1 (human) (UniProt Q15691); assay: condition: only anaphase cells (released from DMA for 45 min); affinity purification with mass spectrometry; as the large-scale anti-Flag immunoprecipitation of Flag-EB1, from anaphase cells only (released from DMA for 45 min)
Flag-tagged EB1 (human) [2] = molecular target: Flag-tagged EB1 (human) (UniProt Q15691); assay: affinity purification with mass spectrometry; large-scale anti-Flag immunoprecipitation of Flag-EB1 from UTA6 mitotic cell lysates (DMA-arrested prometaphase cells; DMA-released anaphase cells), 3xFlag peptide elution, LC-MS-MS/MS; hits found at least twice with at least two peptides and not in Flag-Nuf2 immunoprecipitates

Chains of the proteins cited; added tags and fusions are not shown.
UniProt Q15691: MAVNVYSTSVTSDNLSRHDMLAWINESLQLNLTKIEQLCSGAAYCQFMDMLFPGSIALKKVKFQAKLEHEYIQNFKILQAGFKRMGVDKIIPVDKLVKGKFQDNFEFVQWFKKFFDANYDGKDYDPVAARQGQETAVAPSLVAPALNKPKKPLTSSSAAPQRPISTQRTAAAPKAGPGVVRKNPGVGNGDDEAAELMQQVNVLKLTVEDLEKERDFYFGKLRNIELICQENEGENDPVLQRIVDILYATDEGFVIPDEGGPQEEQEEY

B1: Kif18b (KIF18B), plus-end tracking kinesin (protein, UniProt Q86Y91 1-852)
chain: MAVEDSTLQVVVRVRPPTPRELDSQRRPVVQVVDERVLVFNPEEPDGGFPGLKWGGTHDGPKKKGKDLTFVFDRVFGEAATQQDVFQHTTHSVLDSFLQGYNCSVFAYGATGAGKTHTMLGREGDPGIMYLTTVELYRRLEARQQEKHFEVLISYQEVYNEQIHDLLEPKGPLAIREDPDKGVVVQGLSFHQPASAEQLLEILTRGNRNRTQHPTDANATSSRSHAIFQIFVKQQDRVPGLTQAVQVAKMSLIDLAGSERASSTHAKGERLREGANINRSLLALINVLNALADAKGRKTHVPYRDSKLTRLLKDSLGGNCRTVMIAAISPSSLTYEDTYNTLKYADRAKEIRLSLKSNVTSLDCHISQYATICQQLQAEVAALRKKLQVYEGGGQPPPQDLPGSPKSGPPPEHQPCTPELPAGPRALQEESLGMEAQVERAMEGNSSDQEQSPEDEDEGPAEEVPTQMPEQNPTHALPESPRLTLQPKPVVGHFSARELDGDRSKQLALKVLCVAQRQYSLLQAANLLTPDMITEFETLQQLVQEEKIEPGAEALRTSGLARGAPLAQELCSESIPVPSPLCPEPPGYTGPVTRTMARRLSGPLHTLGIPPGPNCTPAQGSRWPMEKKRRRPSALEADSPMAPKRGTKRQRQSFLPCLRRGSLPDTQPSQGPSTPKGERASSPCHSPRVCPATVIKSRVPLGPSAMQNCSTPLALPTRDLNATFDLSEEPPSKPSFHECIGWDKIPQELSRLDQPFIPRAPVPLFTMKGPKPTSSLPGTSACKKKRVASSSVSHGRSRIARLPSSTLKRPAGPLVLPELPLSPLCPSNRRNGKDLIRVGRALSAGNGVTKVS
Flag-tagged EB1 (human) [1]
  binding: no binding
Flag-tagged EB1 (human) [2]
  binding: binds

B2: CLASP2 (protein, UniProt O75122 1-1294)
chain: MAMGDDKSFDDEESVDGNRPSSAASAFKVPAPKTSGNPANSARKPGSAGGPKVGGASKEGGAGAVDEDDFIKAFTDVPSIQIYSSRELEETLNKIREILSDDKHDWDQRANALKKIRSLLVAGAAQYDCFFQHLRLLDGALKLSAKDLRSQVVREACITVAHLSTVLGNKFDHGAEAIVPTLFNLVPNSAKVMATSGCAAIRFIIRHTHVPRLIPLITSNCTSKSVPVRRRSFEFLDLLLQEWQTHSLERHAAVLVETIKKGIHDADAEARVEARKTYMGLRNHFPGEAETLYNSLEPSYQKSLQTYLKSSGSVASLPQSDRSSSSSQESLNRPFSSKWSTANPSTVAGRVSAGSSKASSLPGSLQRSRSDIDVNAAAGAKAHHAAGQSVRSGRLGAGALNAGSYASLEDTSDKLDGTASEDGRVRAKLSAPLAGMGNAKADSRGRSRTKMVSQSQPGSRSGSPGRVLTTTALSTVSSGVQRVLVNSASAQKRSKIPRSQGCSREASPSRLSVARSSRIPRPSVSQGCSREASRESSRDTSPVRSFQPLASRHHSRSTGALYAPEVYGASGPGYGISQSSRLSSSVSAMRVLNTGSDVEEAVADALKKPARRRYESYGMHSDDDANSDASSACSERSYSSRNGSIPTYMRQTEDVAEVLNRCASSNWSERKEGLLGLQNLLKNQRTLSRVELKRLCEIFTRMFADPHGKRVFSMFLETLVDFIQVHKDDLQDWLFVLLTQLLKKMGADLLGSVQAKVQKALDVTRESFPNDLQFNILMRFTVDQTQTPSLKVKVAILKYIETLAKQMDPGDFINSSETRLAVSRVITWTTEPKSSDVRKAAQSVLISLFELNTPEFTMLLGALPKTFQDGATKLLHNHLRNTGNGTQSSMGSPLTRPTPRSPANWSSPLTSPTNTSQNTLSPSAFDYDTENMNSEDIYSSLRGVTEAIQNFSFRSQEDMNEPLKRDSKKDDGDSMCGGPGMSDPRAGGDATDSSQTALDNKASLLHSMPTHSSPRSRDYNPYNYSDSISPFNKSALKEAMFDDDADQFPDDLSLDHSDLVAELLKELSNHNERVEERKIALYELMKLTQEESFSVWDEHFKTILLLLLETLGDKEPTIRALALKVLREILRHQPARFKNYAELTVMKTLEAHKDPHKEVVRSAEEAASVLATSISPEQCIKVLCPIIQTADYPINLAAIKMQTKVIERVSKETLNLLLPEIMPGLIQGYDNSESSVRKACVFCLVAVHAVIGDELKPHLSQLTGSKMKLLNLYIKRAQTGSGGADPTTDVSGQS
Flag-tagged EB1 (human) [2]
  binding: binds

— publication PMC4365484
